Results reported in US20230265212A1 (OVERA, published 2023).
No constants are given. Whether binding was seen depends on the method and setting. Some results given as binding are weak or reduced against the parent protein; the word gives no strength.

T1: human SAS1B (human) (UniProt Q6HA08)
T1 sequence (looked up): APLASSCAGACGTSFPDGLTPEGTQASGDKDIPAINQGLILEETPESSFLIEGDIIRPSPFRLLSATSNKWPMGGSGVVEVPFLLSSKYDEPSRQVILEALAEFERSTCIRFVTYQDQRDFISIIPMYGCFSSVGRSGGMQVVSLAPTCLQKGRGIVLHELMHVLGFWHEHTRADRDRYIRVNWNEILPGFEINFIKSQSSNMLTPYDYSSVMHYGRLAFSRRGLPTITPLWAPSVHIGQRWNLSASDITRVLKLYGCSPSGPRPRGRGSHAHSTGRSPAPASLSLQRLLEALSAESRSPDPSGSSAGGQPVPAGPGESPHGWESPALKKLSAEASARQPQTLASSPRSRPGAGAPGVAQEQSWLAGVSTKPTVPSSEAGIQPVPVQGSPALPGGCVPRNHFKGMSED

B1: monoclonal antibody OV119 (antibody, V domains shown)
VH: EVQLQESGPELVKPGASVKISCKTSGYTFTEYPMHWVKQSHGKSLEWIGGINPNNGDTTYNQRFKGKATLTVDKSSGTAYMELRSLTSEDSAVYYCVPNFDWFAYWGQGTLVTVSP
VL: DVLMTQSPLSLPVSLGDQASISCRSSQSIVHSYGNTYLEWYLQKPGQSPKLLIYKVSNRFSGVPDRFSGSGSGTDFTLRISRVEAEDLGIYYCFQGSHLPFTFGGGTKLEIK
notes: Mouse hybridoma monoclonal IgG; also called naked OV119 (unconjugated)
B2: monoclonal antibody OV123 (antibody, V domains shown)
VH: EVQLQESGPGLVKPSQSLSLTCTVTGYSITSDNAWNWIRQFPGNKLEWMGYISYSGRTSYNPSLKSRISVTRDTSKNRFFLQLNSVTTEDTATYYCARIGSYFTMDYWGQGTSVTVSS
VL: DVVMTQTPLSLSVGLGDQASISCRSSQSLVHINGSTYLHWYLQKPGQSPKLLIYKIANRFSGVPDRFSGSGSGTDFTLKISRVEAEDLGAYFCSQSTHVPLTFGAGTKLEIK
B3: monoclonal antibody OV115 (antibody, V domains shown)
VH: DVQLQESGPGLVKPSQSLSLTCTVTGYSLTSDYAWNWIRQFPGKKVEWMGYLSYSGRTSYNPSLKSRISITRDTSRNQFFLQLNSVTTEDTATYYCARMGGNFGFDYWGQGTTLTVST
VL: GIVMTQAPLSLPVSLGDQASISCRSSQSLVHINGSTYLHWYLQKPGQSPNLLIYKVSYRFSGVPDRFSGSGSGTDFTLKITRVEAEDLGVYFCSQSTHVPLTFGSGTKLEIK
B4: monoclonal antibody OV121 (antibody, V domains shown)
VH: EVQLQESGPGLVKPSQSLSLTCTVTGYSVTSDSAWNWIRQFPGNKLEWMGYISYSGSTTYNPSLKSRISITRDTSENQFFLQLRSVTTEDTATYYCARLGNLFTMDYWGQGTSVTVSA
VL: EILLTQSPVILAASPGEKVTITCSASSSLNYMNWYQQRPGSSPKIWIYGISNLASGVPARFSGSGSGTSFSFTINSMEAEDVATYYCQQRSSFPFTFGSGTKLEIK

Each binder was assayed against T1, human SAS1B (human) (assay: live staining of human oocytes, fluorescence microscopy).

binding, binds:
B1
B2
B3
B4

These binders were tested against T1, human SAS1B (human) (assay: live staining of zona-free human oocytes, fluorescence microscopy).

binding, binds:
B1

The binders below were run against T1, human SAS1B (human) (assay: cell-surface flow cytometry on AsPc-1, Colo205, SNU539, SAS1B-HEK293T and SAS1BX1-HEK293T).

binding, binds:
B1
B2
B3
B4
